The full ranking holds about 33,000 sequences; the median of “E-score (-0.5 to 0.5)” is about -0.0014, and the highest 2% start at about 0.25. Some of the results follow.

For the assay, the target named is T1, Cad1 (UniProt P24813).
T1 sequence: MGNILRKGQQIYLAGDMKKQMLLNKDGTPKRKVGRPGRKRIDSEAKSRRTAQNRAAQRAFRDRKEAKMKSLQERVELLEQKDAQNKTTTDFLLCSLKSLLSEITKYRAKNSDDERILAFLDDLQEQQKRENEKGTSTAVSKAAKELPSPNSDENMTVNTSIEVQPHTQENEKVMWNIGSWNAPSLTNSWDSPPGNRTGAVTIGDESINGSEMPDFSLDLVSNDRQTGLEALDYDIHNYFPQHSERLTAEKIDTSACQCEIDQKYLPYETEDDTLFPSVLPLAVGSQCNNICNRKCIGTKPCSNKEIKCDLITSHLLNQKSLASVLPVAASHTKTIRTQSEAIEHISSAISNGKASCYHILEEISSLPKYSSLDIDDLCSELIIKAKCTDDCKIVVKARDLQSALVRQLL
In words: PBM E-score (8-mer binding enrichment) (E-score (-0.5 to 0.5)); higher = stronger / more preferred TF binding. The following applies: protein concentration: 100 nM; construct: GST-full length. An outline of the steps: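 Using PURExpress in vitro transcription/translation, GST-tagged yeast transcription factors were made in full-length or DNA-binding-domain form. These were applied at about 100-200 nM to double-stranded universal all-10-mer Agilent arrays, and bound protein was detected with fluorescent anti-GST. Scans were normalised with masliner before the Universal PBM Analysis Suite assigned E-scores to ungapped eight-base words pooled with their reverse complements.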
For AGGACACA, the “PBM E-score” value amounted to 0.162. In the case of GATGACGA, the “PBM E-score” value is 0.0955. In the case of GATCGTTA, the “PBM E-score” value is -0.0257. To ATCAGCTG belongs 0.163; to CCAGGCGA, -0.175.

Turning to AGCCCTGA, the “PBM E-score” value is -0.113. To AGGAATCA belongs 0.112. To GTTGTGTA belongs 0.0512; to AATTCTAT, 0.0576. Regarding CCTTTGCG, the “PBM E-score” value is -0.0321.

On to GAGTCGTA, for which the “PBM E-score” value was -0.0818. For ACTGAATC, the “PBM E-score” value is -0.0362. For GGCCCGTA the value was -0.00128. For AGGAACCA the value was 0.0785; for CCAATCAC, -0.135; for TCCCGGCA, -0.0759. For TCTAACAA the value was -0.00499; for CCACCCCC, -0.302; for CTTGTATA, 0.152.

As to CAAGAAAG, the “PBM E-score” value was -0.0355. To ATGTGCTG belongs 0.187. Regarding AGTACTGC, the “PBM E-score” value was -0.0668. To GTCTGTGA belongs 0.0752. To GAAAATCA belongs 0.133; to CAGGACAA, 0.235; to CCCACGTA, -0.127. Regarding AGTCATGC, the “PBM E-score” value is 0.0722. For CCGTACGA the value was 0.0393; for CCGGCCGC, -0.106. For ACACTCAG the value was 0.00205; for AGGAAATA, 0.246.

For CTTCACCA, the “PBM E-score” value was -0.244. For AAAAAAGG the value was 0.0457; for CTCTAGGA, -0.307.

On to CTGAAATC, for which the “PBM E-score” value was determined as 0.00588. For ACAGTGTC the value was 0.00997; for TGTCAAAA, -0.0597. To AATTGTAT belongs 0.106; to ATTTTGGA, 0.144. For CACTTCCC the value was -0.118; for CACGCTGG, -0.114; for CAAGTACA, -0.0449.

Turning to GGCCCCAC, the “PBM E-score” value is -0.262. To CTGACTTC belongs 0.084; to AAAGTTTC, 0.00219. Turning to GAGTCGCA, the “PBM E-score” value was -0.262. Consider GGCAATGA, for which the “PBM E-score” value is -0.161. In the case of CAGGTGAG, the “PBM E-score” value is -0.218. To AACGGGCT belongs -0.101; to GGTGATTA, 0.236. Take ACCCTCCA: the “PBM E-score” value is -0.229. For AATCGGCC the value was -0.00254; for CCGATCCA, -0.0429. For AGCAACCG the value was 0.0506; for CATCAGGG, -0.00636. To CTAGTTAC belongs -0.0303; to AACTTGCG, 0.0928; to ATCAGACA, 0.0343.

AGGTTGAC: the “PBM E-score” value is -0.0657. AAGGATTA: the “PBM E-score” value is -0.0449. For GTACATTA the value was 0.0633; for ATCCTCAT, -0.191; for GGTCCGCA, 0.0635. For AGGCAGTC the value was -0.113. For ACCTGCAT the value was 0.105. Take CTAATAAG: the “PBM E-score” value is 0.0516.

Take CTCAATTA: the “PBM E-score” value turned out to be 0.042. To CGACACGA belongs 0.207; to AACGAAGC, 0.111. To CCTTCTCC belongs -0.203; to CCAACGTC, -0.0432. For CGCATACC the value was 0.0497; for AAGGCATG, -0.2. Take AGGCGTAA: the “PBM E-score” value came to 0.0268. To AAACCTGT belongs -0.0205. For ACTAGCAT the value was -0.0862; for CAGACGGA, 0.106; for ACATATTC, 0.153. For TTAAAAAA the value was 0.181; for GTAGCATA, -0.0152; for GTAAGGAA, 0.0816. Turning to CGAGCGAG, the “PBM E-score” value is 0.258. For ATTATTCG the value was 0.195; for ACCCCGTG, -0.0981. To CGTAATAC belongs 0.186; to CCGCTGGA, -0.141.

The record behind these values is the supplement of paper PMC3334620.
